# Measured values published in patent US3948899A, “α-Cyanobenzylpiperazines and a process for producing the same” (Fuji Chemical Industry Co., Ltd., priority 1973, dated 1976).
# Where a name gives a salt, the structure may show the parent alone. At least one structure is not confirmed: it was looked up by name or label, or the drawing left a doubt.
# Key:
# mongrel adult dogs [1] = assay: Effects on heart rate (thoractomized anesthetized dogs, i.v.); assay type: in vivo, dog
# Protocol: (§1) All experiments were conducted on male and female thoractomized mongrel adult dogs weighing about 10 Kg under anesthesia with pentobarbital sodium.
# (§2) Arterial blood pressure was measured by pressure transducer (Nippon Koden MPU-0.5) connected with the cannula inserted from exposed carotid artery into aorta. Aortic blood flow was determined by means of electromagnetic flow meter (Nippon Koden MF-5) mounted at an origin of aorta. Coronary sinus out flow and coronary sinus oxygen tension were assessed by means of electromagnetic flow meter (Nippon Koden MF-5) and Po2 Macro electrode (Beckmann Moder 160-C), respectively, using Morawitz cannulization technique. Heart rate was measured by cardiotachometer (Nippon Koden RT-2) synchronized with systolic blood pressure of aorta.
# mongrel adult dogs [2] = assay: Effects on aortic blood flow (thoractomized anesthetized dogs, i.v.); assay type: in vivo, dog
# Protocol: as §1, §2
# mongrel adult dogs [3] = assay: Effects on arterial mean blood pressure (thoractomized anesthetized dogs, i.v.); assay type: in vivo, dog
# Protocol: as §1, §2
# mongrel adult dogs [4] = assay: Effects on coronary sinus out flow (thoractomized anesthetized dogs, i.v.); assay type: in vivo, dog
# Protocol: as §1, §2
# mongrel adult dogs [5] = assay: Effects on the work done by the left ventricle (thoractomized anesthetized dogs, i.v.); assay type: in vivo, dog
# Protocol: as §1, §2
# The work done by the left ventricle is calculated according to the following equation: […]
# [6] = prior art; cited from earlier work
compound,measurement,setting,value
"COc1ccc(CN2CCNCC2)c(OC)c1OC [Vastarel F, 2,3,4 -trimethoxybenzylpiperazine dihydrochloride]",Effect on heart rate (in words),mongrel adult dogs [1]; dogs,slight negative chlomotropic effect
same,Effect on heart rate immediately after administration (in words),mongrel adult dogs [1]; immediately after administration,increase in heart rate immediatel after administration
same,Later effect on aortic blood flow / its duration (in words),mongrel adult dogs [2],increase of long duration
same,Effect on aortic blood flow immediately after administration (in words),mongrel adult dogs [2]; immediately,marked decrease in aortic blood flow immediately after administration
same,Duration of hypotensive effect (in words),mongrel adult dogs [3],relatively transitory
same,Effect on arterial mean blood pressure (in words),mongrel adult dogs [3],hypotensive effects
same,Early effect on coronary sinus out flow (in words),"mongrel adult dogs [4]; i.v. 2.0 mg/Kg, observed until after 1 minute",decrease in coronary sinus out flow
same,Late effect on coronary sinus out flow (in words),"mongrel adult dogs [4]; i.v., from 5 minutes after medication",increase in coronary sinus out flow only to a slight extent
same,Effect on the work of the left ventricle (in words),mongrel adult dogs [5]; dogs,marked but transitory decreasing effect on the work of the left ventricle
same,Late effect on the work done by the left ventricle (in words),mongrel adult dogs [5]; from 5 minutes after medication,increase in the work done by the left ventricle
same,Clinical effectiveness (in words),[6],clinically effective as an antianginal drug
same,Duration of effects (in words),[6],relatively transitory
same,Pharmacological effect on coronary blood flow / myocardial metabolism (in words),[6],increase coronary blood flow and to enhance myocardial metabolism
